Earlier results on one molecule are cited in publication PMC12769565, “Design, synthesis and biological activity of glycoconjugated ADAMTS5 exosite inhibitors: applications in osteoarthritis and ovarian cancer models” (Scientific Reports, 2025).

In the data set the test system is HEK293. More on the design: method as in ChEMBL. The settings on record: ref ChEMBL, read-out: EC50 (Standard Value); cited from earlier work.

For orientation: EC50 means the concentration at which the effect is half-maximal. For the molecule `Clc1ccccc1C(c1ccccc1)(c1ccccc1)n1ccnc1` [CHEMBL104], the EC50 is 3000 nM.
